Marks after values point to notes of the source that are not given here.

Chains of the proteins cited; added tags and fusions are not shown.
UniProt P08183, whole entry: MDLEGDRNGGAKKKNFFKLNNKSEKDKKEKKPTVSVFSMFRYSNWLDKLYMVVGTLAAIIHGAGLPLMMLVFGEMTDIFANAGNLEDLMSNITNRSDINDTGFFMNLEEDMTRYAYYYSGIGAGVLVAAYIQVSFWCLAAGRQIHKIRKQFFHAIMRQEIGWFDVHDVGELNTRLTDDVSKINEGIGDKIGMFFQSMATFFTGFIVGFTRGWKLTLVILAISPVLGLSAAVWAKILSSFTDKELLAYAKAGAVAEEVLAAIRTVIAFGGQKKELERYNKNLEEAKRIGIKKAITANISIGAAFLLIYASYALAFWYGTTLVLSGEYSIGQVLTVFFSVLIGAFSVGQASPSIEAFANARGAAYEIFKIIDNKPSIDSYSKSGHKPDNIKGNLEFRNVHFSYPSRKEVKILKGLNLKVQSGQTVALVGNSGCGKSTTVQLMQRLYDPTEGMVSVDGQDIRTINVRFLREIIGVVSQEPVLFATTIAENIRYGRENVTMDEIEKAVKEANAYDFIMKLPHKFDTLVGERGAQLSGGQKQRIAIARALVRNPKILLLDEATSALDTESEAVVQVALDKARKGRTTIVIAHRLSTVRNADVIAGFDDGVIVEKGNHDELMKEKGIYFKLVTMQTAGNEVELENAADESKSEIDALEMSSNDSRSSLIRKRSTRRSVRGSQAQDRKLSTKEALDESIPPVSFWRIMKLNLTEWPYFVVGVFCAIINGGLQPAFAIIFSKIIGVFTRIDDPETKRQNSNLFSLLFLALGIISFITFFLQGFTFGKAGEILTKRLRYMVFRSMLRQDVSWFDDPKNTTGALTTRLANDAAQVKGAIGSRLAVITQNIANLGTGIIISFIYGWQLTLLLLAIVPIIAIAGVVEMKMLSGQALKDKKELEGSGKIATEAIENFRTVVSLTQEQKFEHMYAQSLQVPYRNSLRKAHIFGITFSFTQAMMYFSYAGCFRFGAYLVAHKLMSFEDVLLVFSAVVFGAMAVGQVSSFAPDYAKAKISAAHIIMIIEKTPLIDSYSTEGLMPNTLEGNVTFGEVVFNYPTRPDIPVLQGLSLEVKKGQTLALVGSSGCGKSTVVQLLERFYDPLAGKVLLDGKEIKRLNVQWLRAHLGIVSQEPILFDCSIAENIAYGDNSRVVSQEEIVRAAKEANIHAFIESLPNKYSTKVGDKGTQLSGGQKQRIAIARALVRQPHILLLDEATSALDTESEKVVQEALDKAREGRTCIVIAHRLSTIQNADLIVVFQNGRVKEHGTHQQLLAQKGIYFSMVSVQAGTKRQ

Data set [1] is described as follows: Intravenous to intraventricular ED10 ratio. Particulars: from values of ref Casy and Parfitt, 1986.
The target in data set [2] is recombinant human P-gp (Homo sapiens, UniProt P08183).
The conditions of data set [3]: ref Casy and Parfitt, 1986; cited from earlier work.

`CN1CC[C@]23c4c5ccc(O)c4O[C@H]2[C@@H](O)C=C[C@H]3[C@H]1C5` [Morphine]: the “ED10 ratio relative to that of meperidine” value in data set [1] is recorded as ~ 107 fold. In data set [2], the “P-gp affinity status from P-gp ATPase assay” value is on record as “P-gp substrate”. In data set [2] (human), the “Fold stimulation of basal P-gp-ATPase activity” value is reported as 1.54 ± 0.08 ^b fold and the “Rate of ATP consumption versus non-treated control (significance)” value was “significantly different (p < 0.05)”. The “Intravenous to intraventricular ED10 ratio” value in data set [3] is given as 910.
